These are yes or no findings as the source states them, for the method shown. Binding seen in cells or lysates may run through a third protein. Some binding calls cover weakened binding; strength is not graded here.
Molecular target: UL25 (human cytomegalovirus) (UniProt P16761)

The chains behind the UniProt entries cited, without tags or fusion partners.
UniProt P16761: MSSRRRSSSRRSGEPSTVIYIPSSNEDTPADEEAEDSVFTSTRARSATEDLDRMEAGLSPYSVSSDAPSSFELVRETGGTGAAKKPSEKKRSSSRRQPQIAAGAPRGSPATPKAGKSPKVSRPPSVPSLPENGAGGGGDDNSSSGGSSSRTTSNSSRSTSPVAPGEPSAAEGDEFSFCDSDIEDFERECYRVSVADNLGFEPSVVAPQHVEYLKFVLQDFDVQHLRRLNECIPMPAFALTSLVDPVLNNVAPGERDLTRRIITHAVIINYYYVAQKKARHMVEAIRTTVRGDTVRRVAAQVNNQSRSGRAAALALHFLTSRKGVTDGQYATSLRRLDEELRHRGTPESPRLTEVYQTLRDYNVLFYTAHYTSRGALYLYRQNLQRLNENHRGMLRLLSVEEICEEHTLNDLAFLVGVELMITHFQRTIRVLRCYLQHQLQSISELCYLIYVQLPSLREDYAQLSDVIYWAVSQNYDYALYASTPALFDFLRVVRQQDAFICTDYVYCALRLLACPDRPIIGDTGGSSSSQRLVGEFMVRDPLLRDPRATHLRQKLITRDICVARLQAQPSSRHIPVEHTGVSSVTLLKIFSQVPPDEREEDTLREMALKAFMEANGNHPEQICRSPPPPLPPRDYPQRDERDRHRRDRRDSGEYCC
UniProt O00571: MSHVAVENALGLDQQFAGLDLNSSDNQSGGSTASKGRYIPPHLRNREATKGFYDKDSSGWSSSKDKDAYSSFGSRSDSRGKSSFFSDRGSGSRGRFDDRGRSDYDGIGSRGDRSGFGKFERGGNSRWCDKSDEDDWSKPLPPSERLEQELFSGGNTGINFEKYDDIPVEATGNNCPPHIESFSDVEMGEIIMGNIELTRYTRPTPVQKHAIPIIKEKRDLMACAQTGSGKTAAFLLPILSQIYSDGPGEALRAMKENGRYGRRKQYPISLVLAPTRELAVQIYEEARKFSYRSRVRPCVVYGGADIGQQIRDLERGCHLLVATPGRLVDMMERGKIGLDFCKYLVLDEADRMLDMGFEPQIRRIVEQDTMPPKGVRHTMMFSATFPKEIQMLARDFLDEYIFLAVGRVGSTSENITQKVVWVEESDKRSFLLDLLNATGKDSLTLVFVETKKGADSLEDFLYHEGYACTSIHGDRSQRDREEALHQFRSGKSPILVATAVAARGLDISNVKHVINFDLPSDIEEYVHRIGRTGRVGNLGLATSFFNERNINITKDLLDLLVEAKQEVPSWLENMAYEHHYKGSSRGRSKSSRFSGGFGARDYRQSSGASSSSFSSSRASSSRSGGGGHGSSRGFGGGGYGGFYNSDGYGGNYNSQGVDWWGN

Substance: DDX3X (from UniProt O00571 1-662)
- binding: binds

Source: article PMC12214610
